# Measured values taken from PubChem BioAssay AID651768 (National Center for Advancing Translational Sciences (NCATS), 2012).
# The chains behind the UniProt entries cited, without tags or fusion partners.
# UniProt Q14191, whole entry, looked up: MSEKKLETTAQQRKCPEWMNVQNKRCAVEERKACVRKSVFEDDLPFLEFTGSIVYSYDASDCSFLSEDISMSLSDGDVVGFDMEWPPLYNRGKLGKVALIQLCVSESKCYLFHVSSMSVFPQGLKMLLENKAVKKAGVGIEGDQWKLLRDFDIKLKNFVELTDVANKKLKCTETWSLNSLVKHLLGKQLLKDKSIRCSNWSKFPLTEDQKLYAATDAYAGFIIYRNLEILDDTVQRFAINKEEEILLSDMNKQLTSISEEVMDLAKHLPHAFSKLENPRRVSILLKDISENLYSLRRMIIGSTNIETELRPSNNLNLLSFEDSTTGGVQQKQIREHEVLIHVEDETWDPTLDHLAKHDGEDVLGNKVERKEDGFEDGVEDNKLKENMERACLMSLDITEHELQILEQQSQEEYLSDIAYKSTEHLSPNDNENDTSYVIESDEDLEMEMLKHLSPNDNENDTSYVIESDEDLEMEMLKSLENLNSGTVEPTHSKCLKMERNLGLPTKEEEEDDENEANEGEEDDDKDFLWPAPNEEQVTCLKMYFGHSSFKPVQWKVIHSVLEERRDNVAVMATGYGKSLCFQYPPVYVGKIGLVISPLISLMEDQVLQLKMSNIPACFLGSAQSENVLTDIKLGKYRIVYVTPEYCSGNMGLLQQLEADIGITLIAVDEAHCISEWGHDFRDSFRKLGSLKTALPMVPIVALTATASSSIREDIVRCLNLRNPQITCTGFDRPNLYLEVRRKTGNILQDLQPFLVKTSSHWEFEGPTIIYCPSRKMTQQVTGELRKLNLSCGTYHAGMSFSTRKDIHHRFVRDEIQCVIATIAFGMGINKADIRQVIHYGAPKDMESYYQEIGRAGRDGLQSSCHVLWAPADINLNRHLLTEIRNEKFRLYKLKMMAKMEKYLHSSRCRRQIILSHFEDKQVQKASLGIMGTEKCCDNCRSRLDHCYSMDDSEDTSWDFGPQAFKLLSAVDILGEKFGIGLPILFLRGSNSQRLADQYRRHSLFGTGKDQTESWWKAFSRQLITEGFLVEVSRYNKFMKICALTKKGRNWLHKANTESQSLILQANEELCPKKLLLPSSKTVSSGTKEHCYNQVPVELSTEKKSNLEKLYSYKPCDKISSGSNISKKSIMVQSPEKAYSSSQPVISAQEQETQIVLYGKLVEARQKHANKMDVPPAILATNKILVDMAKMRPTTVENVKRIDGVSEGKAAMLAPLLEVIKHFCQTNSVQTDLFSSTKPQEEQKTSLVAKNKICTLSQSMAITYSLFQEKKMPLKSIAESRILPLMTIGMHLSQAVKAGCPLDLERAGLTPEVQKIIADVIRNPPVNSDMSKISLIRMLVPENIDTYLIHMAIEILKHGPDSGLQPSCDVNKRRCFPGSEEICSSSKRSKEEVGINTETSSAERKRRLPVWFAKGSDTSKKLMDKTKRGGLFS
# Among all 360,000 compounds or so, about 1,700 (0.47%) were called active. This list was built around the results that the source calls inconclusive (neither active nor inactive); the mix of calls is not that of the screen. The call rests on the fitted dose curve; in most records, active means well fitted inhibition curve with a large enough effect; inconclusive means small, poorly fitted or top-dose-only effect; inactive means no such curve, though single readings can be large or run the other way. Where the call is inconclusive, the potency comes from a doubtful curve fit.
# Target: Bifunctional 3'-5' exonuclease/ATP-dependent helicase WRN (Homo sapiens) (UniProt Q14191)
# Experiment: qHTS for Inhibitors of WRN Helicase; further: nearly all actives have a fitted effect of over 55% in size
# Conditions: WRN helicase unwinding, fluorescent forked duplex, kinetic; activity change, negative = inhibition: at 114 µM (top of the series) unless noted
# Summary of the method: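 Kinetic red-fluorescence monitoring (525/598 nm) tracks WRN helicase activity after 100 nM fluorophore-quencher forked duplex and 2 mM ATP are added to 20 nM enzyme pretreated 15 min at room temperature with compound.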
# On the % scale 0 is the no-effect control and ±100 the full control effect; potency means the concentration at half of the fitted maximal effect.
SMILES,Potency,"activity change, negative = inhibition"
CCCCn1c(SCC(=O)c2ccc(O)c(O)c2)nc2ccsc2c1=O,"inconclusive: 39.8 µM [inhibitor, full curve]",
COc1cc(/C=C2/SC(=S)N(CC(=O)O)C2=O)ccc1OC(=O)c1cccs1,"inconclusive: 20 µM [inhibitor, full curve]",
COc1cc2c(cc1OC)-c1cc(NCc3ccccn3)nc(=O)n1CC2,active: 44.7 µM,
COc1ccccc1Nc1nc(N)nc(CN2CCN(Cc3ccc4c(c3)OCO4)CC2)n1,inactive,
Cc1cc(C)n(CC(=O)NNC(=O)CCCOc2ccc(Cl)c(C)c2)n1,"inconclusive: 70.8 µM [inhibitor, single point]",
COc1ccc(-c2csc(NC(=S)NC(=O)c3cccs3)n2)cc1OC,"inconclusive: 21.2 µM [inhibitor, partial curve]",
O=[N+]([O-])c1ccccc1N/N=C/c1ccccc1,inactive,
COc1ccc(-c2cc3ccccc3[nH]2)cc1,"inconclusive: 50.1 µM [inhibitor, partial curve]",
CCc1nnc(NS(=O)(=O)c2ccc(Nc3ccc([N+](=O)[O-])c4nonc34)cc2)s1,"inconclusive: 44.7 µM [inhibitor, full curve, poor fit]",
CCC(CO)[n+]1c(C)cc(/C=C2\Sc3ccccc3N2Cc2ccccc2)cc1C (stereo not drawn),"inconclusive: 28.2 µM [inhibitor, single point]",
O=S(=O)(/N=C(/Nc1ccc(Cl)c(S(=O)(=O)Nc2ccccc2Cl)c1)c1ccc(F)cc1)c1ccccc1,"inconclusive: 22.4 µM [inhibitor, full curve, poor fit]",
CCN(CC)c1ccc2c(Cl)c(Br)c(=O)oc2c1,"inconclusive: 89.1 µM [inhibitor, single point]",
Cc1ccc(S(=O)(=O)/N=C2/NC(=O)/C(=C\c3ccccc3)S2)cc1,"inconclusive: 63.1 µM [inhibitor, partial curve]",
O=C(COC(=O)c1ccc([N+](=O)[O-])o1)Nc1ncc(Cl)cc1Cl,"inconclusive: 15.8 µM [inhibitor, full curve]",
Cc1ccc(Cn2nnc3c(=O)[nH]c(C4CCN(S(=O)(=O)/C=C/c5ccccc5)CC4)nc32)cc1,"inconclusive: 89.1 µM [inhibitor, single point]",
CC1=Nc2ccccc2N=C(NC(=O)c2ccccc2)C1c1ccccc1 (stereo not drawn),"inconclusive: 25.1 µM [inhibitor, single point]",
COc1cc(/C=C(\C#N)C(=O)Nc2ccc3c(c2)OCCO3)ccc1O,"inconclusive: 50.1 µM [inhibitor, partial curve]",
CCCCn1c(=O)[nH]c(=O)c2c1nc(-c1ccccc1F)n2Cc1ccccc1,inactive,
C[n+]1ccn(CC(=O)c2cccs2)c1,"inconclusive: 10 µM [inhibitor, full curve]",
O=C(CN1C(=O)C(=O)N(Cc2ccco2)C1=O)Nc1ccccc1,inactive,
O=C(c1cc(-c2ccc(Cl)cc2Cl)on1)N1CCCCCC1,"inconclusive: 89.1 µM [inhibitor, single point]",
C/C(=N\NC(=O)c1cc2ccccc2cc1O)c1cc2ccccc2o1,"inconclusive: 39.8 µM [inhibitor, partial curve]",
O=C(Cn1cnc2c(nnn2-c2cccc(F)c2)c1=O)Nc1ccc2c(c1)OCCO2,"inconclusive: 89.1 µM [inhibitor, single point]",

# 5 structures already listed, sorted by length of the SMILES, falling:
SMILES,Potency,"activity change, negative = inhibition"
Cc1ccc(Cn2nnc3c(=O)[nH]c(C4CCN(S(=O)(=O)/C=C/c5ccccc5)CC4)nc32)cc1,"inconclusive: 89.1 µM [inhibitor, single point]",
CCCCn1c(=O)[nH]c(=O)c2c1nc(-c1ccccc1F)n2Cc1ccccc1,inactive,
C/C(=N\NC(=O)c1cc2ccccc2cc1O)c1cc2ccccc2o1,"inconclusive: 39.8 µM [inhibitor, partial curve]",
O=C(c1cc(-c2ccc(Cl)cc2Cl)on1)N1CCCCCC1,"inconclusive: 89.1 µM [inhibitor, single point]",
O=[N+]([O-])c1ccccc1N/N=C/c1ccccc1,inactive,

# (listing goes on)

SMILES,Potency,"activity change, negative = inhibition"
COc1cccc(CC(=O)Nc2cc(S(=O)(=O)N3CCOCC3)ccc2OC)c1,inactive,
O=C(NCc1nnc(SCC(=O)N2CCCCC2)o1)c1c(F)cccc1F,"inconclusive: 89.1 µM [inhibitor, single point]",
CC(C)(C)c1ccc(/C=N/NC(=S)NC2CCCCC2)cc1,"inconclusive: 39.8 µM [inhibitor, single point]",
C#CCNC(=O)C1=C[C@@H](c2ccccc2)C[C@@H](OCc2ccc(CO)cc2)O1,inactive,
Cc1cccc(NC(=O)CN2C(=O)N/C(=C/c3cc(C)n(-c4ccncc4)c3C)C2=O)c1,"inconclusive: 28.2 µM [inhibitor, single point]",
Cc1ccc(NC(=S)NNC(=S)NCc2ccccc2)cc1,inactive,
Cc1cccc(C(=O)NNC(=S)NC(=O)c2ccccc2)c1,"inconclusive: 11.2 µM [inhibitor, full curve, poor fit]",
COc1ccc(-n2c(O)c(C=NCc3ccccn3)c3ccccc3c2=O)c(OC)c1,"inconclusive: 63.1 µM [inhibitor, partial curve, poor fit]",
O=[N+]([O-])c1c(NCCO)cc(N2CCN(Cc3ccc4c(c3)OCO4)CC2)c2nonc12,inactive,
CCCCC(NC(=O)Cc1c(C)c2cc3c(C)c(C)oc3c(C)c2oc1=O)C(=O)O (stereo not drawn),inactive,
CC(=O)n1cc(C(C[N+](=O)[O-])SCCN)c2ccccc21 (stereo not drawn),"inconclusive: 56.2 µM [inhibitor, partial curve]",
O=C(O)c1ccc(COc2ccc3c4c(c(=O)oc3c2)CCC4)o1,"inconclusive: 56.2 µM [inhibitor, partial curve]",
CN(C)S(=O)(=O)c1ccc(C(=O)NCC2CC2(Cl)Cl)cc1 (stereo not drawn),inactive,
CCCc1nnc(SCC(=O)Nc2cc(C)on2)n1CCOC,"inconclusive: 100 µM [inhibitor, single point]",
COc1cccc(/C=C2\Oc3cc(OCC(=O)N4CCC[C@H]4C(=O)O)ccc3C2=O)c1,,inactive: -9.91% [at 11.6 µM]
O=C(O)c1cccc(-n2cccc2/C=C2\SC(=O)N(Cc3ccccc3F)C2=O)c1,"inconclusive: 56.2 µM [inhibitor, partial curve]",
C=CS(=O)c1sc(Cl)c(N2CCOCC2)c1[N+](=O)[O-] (stereo not drawn),active: 31.6 µM,
CCN=C1S/C(=C\c2ccc(O)c(OCC)c2)C(=O)N1CC,inactive,
COc1ccc(Cl)cc1-c1cc(C(=O)Nc2cc(OC)c(OC)c(OC)c2)[nH]n1,"inconclusive: 79.4 µM [inhibitor, partial curve]",
CCN1CNC(=S)N(C(C)c2ccccc2)C1 (stereo not drawn),"inconclusive: 8.91 µM [inhibitor, partial curve]",
CC(Sc1cccc[n+]1[O-])C(=O)NC1CCCCC1C (stereo not drawn),inactive,
CN(CC(=O)NC(=O)NCc1ccco1)Cc1nc2ccccc2c(=O)[nH]1,"inconclusive: 56.2 µM [inhibitor, partial curve]",
O=C(NC(=S)N1CCN(Cc2ccc3c(c2)OCO3)CC1)c1cccc(Br)c1,"inconclusive: 12.6 µM [inhibitor, partial curve]",

SMILES,Potency,"activity change, negative = inhibition"
CCc1ccc2c(c1)C1(NN=C(c3ccccc3)S1)C(=O)N2 (stereo not drawn),"inconclusive: 17.8 µM [inhibitor, full curve]",
CCCCCCCCCCCCCCCC[N+](C)(C)CC,inactive,
COc1ccccc1NS(=O)(=O)c1cc(NC(=O)c2ccccc2C)ccc1N1CCOCC1,"inconclusive: 20 µM [inhibitor, single point]",
CCCCCCS(=O)[C@H]1CS(=O)(=O)C[C@@H]1S(=O)CCCCCC (stereo partly drawn),"inconclusive: 56.2 µM [inhibitor, partial curve]",
Cc1ccc(-n2cccc2/C=C2/C(=N)N3C(=NC2=O)SN=C3S(C)(=O)=O)cc1,"inconclusive: 15.8 µM [inhibitor, full curve, poor fit]",
O=c1c(Cl)c(Cl)cnn1Cc1nnc(-c2ccccc2Br)o1,inactive,
COc1ccccc1NS(=O)(=O)c1cc(NC(=O)c2cccs2)ccc1N1CCCC1,"inconclusive: 50.1 µM [inhibitor, partial curve]",
CCCCn1c(SCC(=O)c2ccc(OC)cc2OC)nc2cc(S(N)(=O)=O)ccc21,"inconclusive: 100 µM [inhibitor, partial curve]",
C=C1C(=O)C23CCC4C(C)(C(=O)OC)CCCC4(C)C2CCC1(O)C3 (stereo not drawn),"inconclusive: 12.6 µM [inhibitor, full curve]",
C/C(=N/NC(=O)c1cc(-c2cccc([N+](=O)[O-])c2)n[nH]1)c1cccc(O)c1,inactive,
O=C(NCCCN1CCOCC1)c1sc2cc([N+](=O)[O-])ccc2c1Cl,active: 28.2 µM,
COc1cc2[nH]c(=S)nc(NCc3ccccn3)c2cc1OC,"inconclusive: 14.1 µM [inhibitor, full curve, poor fit]",
CCSc1nc2sc3c(c2c2[n+]1CC(CBr)O2)CCCC3 (stereo not drawn),"inconclusive: 22.4 µM [inhibitor, single point]",
NC(=S)n1[nH]c(-c2ccc([N+](=O)[O-])cc2)c(N=Nc2ccc(O)cc2)c1=O,inactive,
O=C(O)c1cccc(-n2cccc2/C=C2/NC(=O)N(c3ccc(Cl)cc3)C2=O)c1,active: 3.16 µM,
CN(C)CCOc1cccc(Br)c1,"inconclusive: 79.4 µM [inhibitor, single point]",
CSc1ccc(/C=C(\C(=O)O)c2ccc(S(=O)(=O)N3CCCC3)s2)cc1,"inconclusive: 56.2 µM [inhibitor, partial curve]",
CC1(C)OC(=O)C(=Cc2ccc(-c3ccc(Cl)c(C(=O)O)c3)o2)C(=O)O1,active: 44.7 µM,
COc1cc2c(C#N)c(N3CCCC3)nc(N)c2c(N)n1,"inconclusive: 44.7 µM [inhibitor, partial curve]",
CCC(CC)NCC(O)COc1ccc(Br)cc1 (stereo not drawn),"inconclusive: 89.1 µM [inhibitor, single point]",
Cc1ccc(OCc2nnc(SC(C)C(=O)O)n2Cc2ccccc2)cc1 (stereo not drawn),inactive,
O=C(CCC(=O)Nc1ccccc1Cl)N/N=C1\CCCc2ccccc21,"inconclusive: 28.2 µM [inhibitor, partial curve]",
